According to paper PMC5009372:
No constants are given. Whether binding was seen depends on the method and setting.

Sequences of proteins named here, by UniProt entry; tags and fusion partners are left off.
UniProt P0C2Z6: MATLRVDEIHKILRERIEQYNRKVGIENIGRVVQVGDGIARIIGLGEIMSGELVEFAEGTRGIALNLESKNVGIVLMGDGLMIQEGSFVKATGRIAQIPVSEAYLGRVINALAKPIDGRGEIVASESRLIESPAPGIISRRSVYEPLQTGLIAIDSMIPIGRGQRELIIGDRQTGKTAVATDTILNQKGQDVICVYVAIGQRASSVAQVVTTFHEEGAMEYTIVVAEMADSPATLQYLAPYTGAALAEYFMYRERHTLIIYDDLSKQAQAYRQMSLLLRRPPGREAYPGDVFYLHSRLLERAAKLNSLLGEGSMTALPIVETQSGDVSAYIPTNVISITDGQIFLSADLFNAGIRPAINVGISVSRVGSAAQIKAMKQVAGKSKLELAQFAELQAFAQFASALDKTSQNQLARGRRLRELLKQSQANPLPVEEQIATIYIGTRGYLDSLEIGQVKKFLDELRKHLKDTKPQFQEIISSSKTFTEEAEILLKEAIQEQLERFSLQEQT
UniProt P0C355: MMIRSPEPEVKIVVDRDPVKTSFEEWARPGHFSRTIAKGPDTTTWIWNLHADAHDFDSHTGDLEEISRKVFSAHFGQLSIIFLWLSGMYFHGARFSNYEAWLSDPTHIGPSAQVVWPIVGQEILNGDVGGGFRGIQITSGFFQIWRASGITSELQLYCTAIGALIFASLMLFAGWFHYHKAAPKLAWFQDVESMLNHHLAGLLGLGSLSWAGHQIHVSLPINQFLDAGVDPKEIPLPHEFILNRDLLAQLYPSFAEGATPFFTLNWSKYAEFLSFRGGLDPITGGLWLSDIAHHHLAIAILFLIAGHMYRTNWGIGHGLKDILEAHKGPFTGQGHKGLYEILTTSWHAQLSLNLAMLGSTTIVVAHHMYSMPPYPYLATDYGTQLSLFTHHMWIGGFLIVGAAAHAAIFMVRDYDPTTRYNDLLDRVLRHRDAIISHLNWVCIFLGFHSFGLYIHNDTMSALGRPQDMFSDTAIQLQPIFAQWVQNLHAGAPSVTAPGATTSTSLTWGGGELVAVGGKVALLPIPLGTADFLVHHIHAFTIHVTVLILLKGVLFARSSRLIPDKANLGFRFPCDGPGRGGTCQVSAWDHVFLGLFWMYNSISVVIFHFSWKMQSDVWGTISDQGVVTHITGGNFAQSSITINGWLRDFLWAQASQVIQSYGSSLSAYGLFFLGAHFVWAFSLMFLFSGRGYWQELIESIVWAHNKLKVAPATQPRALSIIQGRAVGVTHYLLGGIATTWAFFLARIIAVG

Molecular target: T1, YL1 (YELLOW LEAF 1), full-length, in pGBKT7 (rice (Oryza sativa)) (UniProt Q0E3V2)
T1 sequence: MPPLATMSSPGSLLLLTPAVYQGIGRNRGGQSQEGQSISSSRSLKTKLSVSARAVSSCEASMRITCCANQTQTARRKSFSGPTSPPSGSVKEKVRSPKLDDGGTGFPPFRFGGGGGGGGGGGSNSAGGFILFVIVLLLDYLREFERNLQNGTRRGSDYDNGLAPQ
Assay: two-hybrid; Matchmaker Gold system (Clontech); YL1 in pGBKT7 (bait), subunits in pGADT7 (prey); S. cerevisiae AH109; growth on SD/-Ade/-His/-Leu/-Trp medium containing X-α-gal

Row | Substance | binding
1 | AtpA (α subunit of chloroplast ATP synthase), in pGADT7 (from UniProt P0C2Z6 1-507) | no binding
2 | PsaA (PSI core subunit), in pGADT7 (from UniProt P0C355 1-750) | no binding
